Experimental data: the supplement of paper PMC10849652
The list shows a part of the results.

The chains behind the UniProt entries cited, without tags or fusion partners. Where a name states a change or a piece, a line headed by the entry shows the natural chain unless it says otherwise.
UniProt Q9P2D0: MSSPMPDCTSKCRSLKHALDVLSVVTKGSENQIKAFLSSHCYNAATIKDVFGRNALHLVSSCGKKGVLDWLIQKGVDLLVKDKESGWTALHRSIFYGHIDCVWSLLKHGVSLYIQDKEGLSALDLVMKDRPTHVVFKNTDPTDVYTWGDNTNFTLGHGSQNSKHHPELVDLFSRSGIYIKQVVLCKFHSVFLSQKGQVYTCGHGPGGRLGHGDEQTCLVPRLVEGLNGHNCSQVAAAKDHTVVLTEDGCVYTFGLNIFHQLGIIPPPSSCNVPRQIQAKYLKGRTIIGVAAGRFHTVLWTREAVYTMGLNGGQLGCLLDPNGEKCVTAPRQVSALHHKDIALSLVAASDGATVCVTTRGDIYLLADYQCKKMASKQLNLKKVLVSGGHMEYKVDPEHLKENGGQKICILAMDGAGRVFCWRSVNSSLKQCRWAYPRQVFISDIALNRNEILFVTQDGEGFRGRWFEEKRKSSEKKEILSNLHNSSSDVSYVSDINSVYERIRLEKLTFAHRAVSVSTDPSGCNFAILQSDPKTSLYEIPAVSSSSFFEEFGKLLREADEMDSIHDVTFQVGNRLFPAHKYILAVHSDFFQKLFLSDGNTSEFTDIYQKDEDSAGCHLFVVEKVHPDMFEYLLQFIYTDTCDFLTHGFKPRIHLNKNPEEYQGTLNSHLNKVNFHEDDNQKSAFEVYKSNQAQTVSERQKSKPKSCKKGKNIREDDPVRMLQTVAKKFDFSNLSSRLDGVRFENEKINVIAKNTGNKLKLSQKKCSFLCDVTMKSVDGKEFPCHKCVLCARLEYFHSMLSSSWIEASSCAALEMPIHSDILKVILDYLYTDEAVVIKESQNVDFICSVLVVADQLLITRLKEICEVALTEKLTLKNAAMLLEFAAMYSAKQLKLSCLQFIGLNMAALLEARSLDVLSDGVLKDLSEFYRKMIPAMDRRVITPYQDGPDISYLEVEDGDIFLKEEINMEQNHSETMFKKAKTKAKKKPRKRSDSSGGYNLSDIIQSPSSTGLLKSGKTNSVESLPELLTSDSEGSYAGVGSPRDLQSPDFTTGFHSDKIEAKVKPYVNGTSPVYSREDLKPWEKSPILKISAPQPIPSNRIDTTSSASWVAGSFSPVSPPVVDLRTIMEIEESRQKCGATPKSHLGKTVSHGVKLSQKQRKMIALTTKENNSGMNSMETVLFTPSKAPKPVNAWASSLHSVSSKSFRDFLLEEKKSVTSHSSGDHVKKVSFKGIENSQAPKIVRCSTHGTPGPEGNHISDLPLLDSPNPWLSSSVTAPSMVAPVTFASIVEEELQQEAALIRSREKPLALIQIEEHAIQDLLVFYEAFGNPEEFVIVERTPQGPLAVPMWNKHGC
UniProt Q9NSB8: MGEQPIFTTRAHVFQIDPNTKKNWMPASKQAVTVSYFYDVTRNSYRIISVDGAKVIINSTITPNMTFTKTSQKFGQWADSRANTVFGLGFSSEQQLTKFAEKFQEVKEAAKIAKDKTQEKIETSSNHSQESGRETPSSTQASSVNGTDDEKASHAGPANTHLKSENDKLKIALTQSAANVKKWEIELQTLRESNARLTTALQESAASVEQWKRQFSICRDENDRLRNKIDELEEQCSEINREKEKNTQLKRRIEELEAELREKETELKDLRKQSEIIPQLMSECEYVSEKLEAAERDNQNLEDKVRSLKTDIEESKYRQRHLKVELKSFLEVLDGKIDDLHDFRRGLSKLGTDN
UniProt Q96EW2: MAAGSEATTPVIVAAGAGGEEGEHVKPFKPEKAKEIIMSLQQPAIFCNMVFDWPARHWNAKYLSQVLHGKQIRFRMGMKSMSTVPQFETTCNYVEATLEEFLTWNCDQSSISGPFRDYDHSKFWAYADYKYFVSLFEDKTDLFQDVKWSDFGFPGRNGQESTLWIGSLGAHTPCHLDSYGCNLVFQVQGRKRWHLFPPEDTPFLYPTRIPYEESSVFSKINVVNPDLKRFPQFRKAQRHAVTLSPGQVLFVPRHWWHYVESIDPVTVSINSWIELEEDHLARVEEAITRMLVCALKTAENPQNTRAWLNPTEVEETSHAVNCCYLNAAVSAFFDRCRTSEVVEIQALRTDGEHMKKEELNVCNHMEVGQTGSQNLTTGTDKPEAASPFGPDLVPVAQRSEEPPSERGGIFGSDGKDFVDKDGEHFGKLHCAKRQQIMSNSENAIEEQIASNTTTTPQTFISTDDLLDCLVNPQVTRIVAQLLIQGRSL
UniProt Q8TCT9: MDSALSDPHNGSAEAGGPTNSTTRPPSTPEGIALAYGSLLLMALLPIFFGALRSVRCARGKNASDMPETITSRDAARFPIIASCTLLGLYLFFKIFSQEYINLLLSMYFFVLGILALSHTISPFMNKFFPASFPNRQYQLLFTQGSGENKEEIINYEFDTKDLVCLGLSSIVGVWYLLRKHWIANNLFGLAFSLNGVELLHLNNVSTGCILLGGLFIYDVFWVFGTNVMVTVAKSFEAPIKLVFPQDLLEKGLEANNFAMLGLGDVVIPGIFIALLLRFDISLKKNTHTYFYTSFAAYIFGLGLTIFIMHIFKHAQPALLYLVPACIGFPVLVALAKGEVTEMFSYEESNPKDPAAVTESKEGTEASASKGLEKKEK
UniProt P13747, whole entry, looked up: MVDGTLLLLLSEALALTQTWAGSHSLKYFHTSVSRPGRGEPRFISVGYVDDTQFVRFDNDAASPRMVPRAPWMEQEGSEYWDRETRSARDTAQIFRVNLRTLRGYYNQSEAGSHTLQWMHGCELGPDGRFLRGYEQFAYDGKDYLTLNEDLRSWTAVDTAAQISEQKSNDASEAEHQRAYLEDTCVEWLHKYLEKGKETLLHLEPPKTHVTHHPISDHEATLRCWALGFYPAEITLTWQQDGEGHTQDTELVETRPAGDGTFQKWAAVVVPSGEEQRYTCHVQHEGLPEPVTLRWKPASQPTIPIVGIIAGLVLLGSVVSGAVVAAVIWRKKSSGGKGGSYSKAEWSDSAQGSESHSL
UniProt Q9NZL4: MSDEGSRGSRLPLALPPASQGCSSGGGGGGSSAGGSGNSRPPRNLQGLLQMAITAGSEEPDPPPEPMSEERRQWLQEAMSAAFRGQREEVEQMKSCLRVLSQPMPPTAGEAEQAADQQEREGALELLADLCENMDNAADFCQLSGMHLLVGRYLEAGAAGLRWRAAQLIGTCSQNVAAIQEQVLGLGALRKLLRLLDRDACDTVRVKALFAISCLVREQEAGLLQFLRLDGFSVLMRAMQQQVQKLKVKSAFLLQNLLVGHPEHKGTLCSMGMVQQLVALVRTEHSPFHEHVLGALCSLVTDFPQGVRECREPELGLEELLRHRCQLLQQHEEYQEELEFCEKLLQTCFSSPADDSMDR
UniProt O43390: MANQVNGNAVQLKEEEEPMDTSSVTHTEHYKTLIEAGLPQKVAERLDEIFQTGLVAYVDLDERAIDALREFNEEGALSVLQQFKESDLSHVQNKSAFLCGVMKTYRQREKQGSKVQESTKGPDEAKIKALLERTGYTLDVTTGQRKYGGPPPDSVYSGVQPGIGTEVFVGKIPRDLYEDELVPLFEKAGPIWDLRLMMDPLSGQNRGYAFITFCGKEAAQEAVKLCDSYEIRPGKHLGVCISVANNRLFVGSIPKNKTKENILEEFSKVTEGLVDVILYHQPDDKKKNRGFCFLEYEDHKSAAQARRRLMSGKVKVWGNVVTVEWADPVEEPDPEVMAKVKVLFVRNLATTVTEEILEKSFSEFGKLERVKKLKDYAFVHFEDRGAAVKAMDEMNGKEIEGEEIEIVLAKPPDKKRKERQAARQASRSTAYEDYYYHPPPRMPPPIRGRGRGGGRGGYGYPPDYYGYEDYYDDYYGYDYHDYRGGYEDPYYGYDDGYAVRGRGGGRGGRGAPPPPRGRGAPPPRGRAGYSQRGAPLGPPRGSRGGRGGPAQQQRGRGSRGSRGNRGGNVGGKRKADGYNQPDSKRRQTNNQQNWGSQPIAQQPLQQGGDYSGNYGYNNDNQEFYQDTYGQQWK
UniProt Q9BW72: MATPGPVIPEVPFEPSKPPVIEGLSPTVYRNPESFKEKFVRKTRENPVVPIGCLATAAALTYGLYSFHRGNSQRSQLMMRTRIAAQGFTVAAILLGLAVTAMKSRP
UniProt Q96ED9: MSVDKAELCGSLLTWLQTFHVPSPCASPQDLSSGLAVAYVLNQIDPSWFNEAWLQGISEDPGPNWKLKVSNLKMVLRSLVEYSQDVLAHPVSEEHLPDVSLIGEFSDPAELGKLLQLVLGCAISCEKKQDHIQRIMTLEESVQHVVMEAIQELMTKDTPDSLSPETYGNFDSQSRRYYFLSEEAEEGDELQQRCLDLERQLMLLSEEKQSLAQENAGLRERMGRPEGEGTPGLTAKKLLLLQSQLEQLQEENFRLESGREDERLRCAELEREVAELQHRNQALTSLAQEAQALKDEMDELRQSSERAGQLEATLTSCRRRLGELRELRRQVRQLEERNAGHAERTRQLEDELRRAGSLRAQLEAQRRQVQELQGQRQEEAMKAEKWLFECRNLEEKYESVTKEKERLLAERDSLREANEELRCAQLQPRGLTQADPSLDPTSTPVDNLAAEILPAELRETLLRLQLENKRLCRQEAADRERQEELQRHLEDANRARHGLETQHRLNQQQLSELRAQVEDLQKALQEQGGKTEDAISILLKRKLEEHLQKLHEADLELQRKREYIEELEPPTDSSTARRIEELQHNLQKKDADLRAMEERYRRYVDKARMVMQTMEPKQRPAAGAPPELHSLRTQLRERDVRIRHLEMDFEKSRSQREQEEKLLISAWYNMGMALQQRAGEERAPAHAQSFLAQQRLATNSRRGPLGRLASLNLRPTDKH
UniProt Q9NWY4: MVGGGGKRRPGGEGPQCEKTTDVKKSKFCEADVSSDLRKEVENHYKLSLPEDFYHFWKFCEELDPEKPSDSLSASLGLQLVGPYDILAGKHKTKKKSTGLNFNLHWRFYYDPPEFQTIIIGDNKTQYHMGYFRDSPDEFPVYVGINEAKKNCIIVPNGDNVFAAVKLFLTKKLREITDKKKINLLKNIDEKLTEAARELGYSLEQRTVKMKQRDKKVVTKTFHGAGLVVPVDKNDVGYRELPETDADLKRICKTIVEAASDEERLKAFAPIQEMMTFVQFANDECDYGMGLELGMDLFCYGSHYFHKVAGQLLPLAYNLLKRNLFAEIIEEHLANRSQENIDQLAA
UniProt P50135: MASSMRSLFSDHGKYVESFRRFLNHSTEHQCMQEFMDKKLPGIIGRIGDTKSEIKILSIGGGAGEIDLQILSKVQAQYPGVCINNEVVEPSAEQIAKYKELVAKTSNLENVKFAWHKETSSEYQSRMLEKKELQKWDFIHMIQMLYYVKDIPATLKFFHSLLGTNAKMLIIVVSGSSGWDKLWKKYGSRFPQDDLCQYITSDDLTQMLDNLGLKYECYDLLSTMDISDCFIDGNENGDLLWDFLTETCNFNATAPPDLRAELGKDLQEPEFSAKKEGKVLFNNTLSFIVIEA
UniProt Q9NQG7: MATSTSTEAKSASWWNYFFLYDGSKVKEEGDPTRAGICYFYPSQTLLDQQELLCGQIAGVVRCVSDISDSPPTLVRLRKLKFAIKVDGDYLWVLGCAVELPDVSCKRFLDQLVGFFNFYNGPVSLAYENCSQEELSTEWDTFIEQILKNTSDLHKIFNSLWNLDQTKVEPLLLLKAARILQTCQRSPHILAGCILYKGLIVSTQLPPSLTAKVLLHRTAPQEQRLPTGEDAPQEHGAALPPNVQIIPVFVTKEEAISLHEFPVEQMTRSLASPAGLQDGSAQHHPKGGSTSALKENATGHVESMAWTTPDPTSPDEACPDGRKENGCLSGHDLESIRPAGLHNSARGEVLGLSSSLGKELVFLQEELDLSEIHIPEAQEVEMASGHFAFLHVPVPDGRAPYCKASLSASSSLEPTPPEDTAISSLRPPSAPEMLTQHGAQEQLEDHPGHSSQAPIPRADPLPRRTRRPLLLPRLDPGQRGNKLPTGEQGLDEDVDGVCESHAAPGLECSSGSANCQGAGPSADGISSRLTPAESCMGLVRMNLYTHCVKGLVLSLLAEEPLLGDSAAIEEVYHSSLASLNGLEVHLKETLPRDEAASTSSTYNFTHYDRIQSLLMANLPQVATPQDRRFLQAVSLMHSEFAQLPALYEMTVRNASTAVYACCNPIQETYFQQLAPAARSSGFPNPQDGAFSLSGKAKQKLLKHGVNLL
UniProt Q9NSC5: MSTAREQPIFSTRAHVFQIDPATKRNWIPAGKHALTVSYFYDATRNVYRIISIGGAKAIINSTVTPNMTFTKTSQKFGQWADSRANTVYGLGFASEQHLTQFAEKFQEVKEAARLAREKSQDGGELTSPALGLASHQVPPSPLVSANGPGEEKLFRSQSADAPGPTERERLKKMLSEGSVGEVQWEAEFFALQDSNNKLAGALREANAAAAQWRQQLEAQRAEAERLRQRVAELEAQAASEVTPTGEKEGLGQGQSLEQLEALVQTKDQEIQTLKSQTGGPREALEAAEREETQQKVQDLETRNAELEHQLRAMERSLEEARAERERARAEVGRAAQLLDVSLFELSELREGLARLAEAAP

compound: C/C(=N\NC(=O)C1=CC(=CC=C1)S(=O)(=O)N2CCOCC2)/C3=C(C=CC(=C3)Cl)O; test: log2 fold change, soluble protein after heating vs DMSO (PISA); higher = thermal stabilisation; K562 cells, 10 uM, 30 min; active = over 0.2 and 3.5 SD of the protein, either way, in both replicates (recomputed)
Procedure, shortened: (§1)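 Aliquots of K562 cells (2×10^6 cells/mL) treated with 10 μM compound for 30 min were heated for 3 min over 48°C-58°C. After pooling and extraction in PBS with 0.5% NP-40 at 4°C, soluble protein from a 21,000xg, 90 min spin was quantified by TMTpro 16plex LC-MS/MS with channel sums equalised. Thermal stability is expressed against control samples, from duplicates, as a log2 fold change.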

log2 fold change, inactive:
IBTK (UniProt Q9P2D0) 0.019
HOMER2 (UniProt Q9NSB8) 0.002
HNRNPA1 (UniProt H0YH80) -0.126
HOOK1 (UniProt Q9UJC3) -0.145
HNRNPUL1 (UniProt M0R247) -0.317
HSPBAP1 (UniProt Q96EW2) -0.197
HOXD9 (UniProt P28356) 0.019
HUWE1 isoform 2 (UniProt Q7Z6Z7) -0.062
HM13 (UniProt Q8TCT9) -0.016
HTR1F (UniProt P30939) -0.069
HLA-E (UniProt P13747) 0.088

compound: C1=CC(=C(C=C1Cl)C2=NC3=NC=CN=C3C(=N2)NC4=CC=NC=C4)F; test: as above
Procedure, shortened: as §1

log2 fold change, inactive:
HSPBP1 (UniProt Q9NZL4) 0.131
HMGXB4 (UniProt Q9UGU5) -0.32
IBTK (UniProt Q9P2D0) -0.08
HOMER2 (UniProt Q9NSB8) 0.012
HNRNPA1 (UniProt H0YH80) -0.564
HNRNPR (UniProt O43390) -0.304
HOXB4 (UniProt P17483) -0.018
HNRNPK isoform 3 (UniProt P61978) -0.102
HOOK1 (UniProt Q9UJC3) 0.02
HIGD2A (UniProt Q9BW72) -0.143
HOOK2 (UniProt Q96ED9) 0.134
HUWE1, A0A087X1S3 0.022
HPF1 (UniProt Q9NWY4) 0.084
HM13 (UniProt Q8TCT9) 0.023
ID1 (UniProt P41134) -0.043
HLA-E (UniProt P13747) 0.112
ICE1 (UniProt Q9Y2F5) 0.135

compound: C1=CC(=CC=C1C2=NC3=C(N2)C=C(C=C3)C(=O)N)OC4=CC=C(C=C4)Cl; test: as above
Procedure, shortened: as §1

log2 fold change, inactive:
HNMT (UniProt P50135) 0.031
HNRNPK isoform 3 (UniProt P61978) -0.032
HIGD2A (UniProt Q9BW72) -0.081
HUWE1, A0A087X1S3 0.33
HNRNPUL1 (UniProt M0R247) -0.513
HSPBAP1 (UniProt Q96EW2) 0.06
HPS4 isoform 4 (UniProt Q9NQG7) -0.014
HNRNPD (UniProt D6RF44) -0.076
HOMER3 (UniProt Q9NSC5) 0.044
HOXD9 (UniProt P28356) -0.075
ICOSLG isoform 2 (UniProt O75144) -0.052
HUWE1 isoform 2 (UniProt Q7Z6Z7) -0.042
HTR1F (UniProt P30939) 0.012
ID1 (UniProt P41134) 0.038
